Measurements published in the supplement of paper PMC6078165.

Test system: MDAMB436
Assay: relative JC-1 red fluorescence (viability) vs pre-drug, coculture with fibroblast (fraction); higher = more viable cancer cells
Procedure: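 JC-1 labelled TNBC cells cocultured 1:1 (1,500 cells each) with CellTrace Violet stained primary or stromal fibroblasts in 384-well plates in FluoroBrite medium, treated with one of 42 anticancer drugs at 0.1, 1, 10 or 100 uM. JC-1 red fluorescence (mitochondrial integrity in cancer cells only) was read by plate reader every 8 h for 72 h. Values are normalised to each well's pre-drug value. The stock of one drug was tenfold lower, so its dose labels may be too high.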

O=C(O)C1(C(=O)O)CCC1.[NH2-].[NH2-].[Pt+2] [Carboplatin]
relative JC-1 red fluorescence
Conditions | 8 h | 16 h | 24 h | 32 h | 40 h | 48 h | 56 h | 64 h | 72 h
0.1 µM, coculture fibroblast: C12385 | 0.8065 | 0.697 | 0.6395 | 0.565 | 0.513 | 0.494 | 0.472 | 0.46 | 0.457
0.1 µM, coculture fibroblast: H6013 | 0.842 | 0.734 | 0.701 | 0.686 | 0.66 | 0.669 | 0.636 | 0.615 | 0.575
0.1 µM, coculture fibroblast: H6019 | 0.7466 | 0.634 | 0.619 | 0.54196 | 0.502 | 0.475 | 0.445 | 0.403 | 0.379
0.1 µM, coculture fibroblast: H6076 | 0.827 | 0.733 | 0.721 | 0.68 | 0.667 | 0.651 | 0.647 | 0.632 | 0.625
0.1 µM, coculture fibroblast: H6231 | 0.804 | 0.71 | 0.669 | 0.598 | 0.555 | 0.51 | 0.4875 | 0.459 | 0.426
0.1 µM, coculture fibroblast: HADF | 0.801 | 0.708 | 0.668 | 0.629 | 0.597 | 0.5909 | 0.545 | 0.521 | 0.478
0.1 µM, coculture fibroblast: HCFa | 0.7932 | 0.716 | 0.6841 | 0.653 | 0.622 | 0.626 | 0.562 | 0.544 | 0.484
0.1 µM, coculture fibroblast: HCPF | 0.843 | 0.769 | 0.715 | 0.654 | 0.598 | 0.554 | 0.516 | 0.488 | 0.462
0.1 µM, coculture fibroblast: HHSteC | 0.812 | 0.736 | 0.706 | 0.668 | 0.65 | 0.656 | 0.592 | 0.566 | 0.506
0.1 µM, coculture fibroblast: HMF | 0.8 | 0.697 | 0.632 | 0.589 | 0.558 | 0.527 | 0.521 | 0.501 | 0.486
0.1 µM, coculture fibroblast: HPFa | 0.929 | 0.821 | 0.7716 | 0.706 | 0.755 | 0.808 | 0.792 | 0.767 | 0.69
0.1 µM, coculture fibroblast: HUF | 0.823 | 0.693 | 0.658 | 0.582 | 0.522 | 0.487 | 0.46 | 0.442 | 0.428
0.1 µM, coculture fibroblast: Hs5 | 0.7756 | 0.707 | 0.684 | 0.625 | 0.611 | 0.566 | 0.568 | 0.53 | 0.516
0.1 µM, coculture fibroblast: Hs27A | 0.77 | 0.7 | 0.68 | 0.645 | 0.616 | 0.66 | 0.571 | 0.555 | 0.49
0.1 µM, coculture fibroblast: Hs343T | 0.827 | 0.719 | 0.638 | 0.598 | 0.552 | 0.513 | 0.48 | 0.454 | 0.444
0.1 µM, coculture fibroblast: WS1 | 0.794 | 0.701 | 0.6674 | 0.588 | 0.544 | 0.524 | 0.499 | 0.471 | 0.464
1 µM, coculture fibroblast: C12385 | 0.7282 | 0.683 | 0.66 | 0.5822 | 0.54 | 0.523 | 0.506 | 0.4993 | 0.4964
1 µM, coculture fibroblast: H6013 | 0.7762 | 0.752 | 0.728 | 0.706 | 0.692 | 0.713 | 0.677 | 0.661 | 0.613
1 µM, coculture fibroblast: H6019 | 0.728 | 0.673 | 0.661 | 0.591 | 0.5633 | 0.5578 | 0.53155 | 0.5097 | 0.481
1 µM, coculture fibroblast: H6076 | 0.716 | 0.646 | 0.633 | 0.591 | 0.579 | 0.556 | 0.566 | 0.569 | 0.563
1 µM, coculture fibroblast: H6231 | 0.716 | 0.644 | 0.692 | 0.617 | 0.601 | 0.584 | 0.573 | 0.566 | 0.533
1 µM, coculture fibroblast: HADF | 0.7966 | 0.739 | 0.706 | 0.67 | 0.657 | 0.684 | 0.625 | 0.621 | 0.581
1 µM, coculture fibroblast: HCFa | 0.797 | 0.744 | 0.711 | 0.667 | 0.627 | 0.632 | 0.56 | 0.543 | 0.484
1 µM, coculture fibroblast: HCPF | 0.768 | 0.696 | 0.662 | 0.601 | 0.5663 | 0.5359 | 0.516 | 0.494 | 0.471
1 µM, coculture fibroblast: HHSteC | 0.789 | 0.766 | 0.726 | 0.688 | 0.68 | 0.688 | 0.628 | 0.607 | 0.551
1 µM, coculture fibroblast: HMF | 0.75 | 0.665 | 0.635 | 0.578 | 0.545 | 0.508 | 0.497 | 0.482 | 0.472
1 µM, coculture fibroblast: HPFa | 0.898 | 0.835 | 0.81 | 0.759 | 0.744 | 0.744 | 0.656 | 0.613 | 0.522
1 µM, coculture fibroblast: HUF | 0.801 | 0.711 | 0.681 | 0.603 | 0.557 | 0.527 | 0.505 | 0.493 | 0.489
1 µM, coculture fibroblast: Hs5 | 0.781 | 0.7412 | 0.754 | 0.69 | 0.683 | 0.6387 | 0.645 | 0.625 | 0.6111
1 µM, coculture fibroblast: Hs27A | 0.842 | 0.753 | 0.748 | 0.711 | 0.685 | 0.746 | 0.642 | 0.628 | 0.552
1 µM, coculture fibroblast: Hs343T | 0.735 | 0.64 | 0.602 | 0.553 | 0.526 | 0.493 | 0.483 | 0.4658 | 0.4589
1 µM, coculture fibroblast: WS1 | 0.7244 | 0.694 | 0.667 | 0.594 | 0.555 | 0.541 | 0.524 | 0.495 | 0.49
10 µM, coculture fibroblast: C12385 | 0.819 | 0.706 | 0.645 | 0.558 | 0.506 | 0.48 | 0.455 | 0.438 | 0.429
10 µM, coculture fibroblast: H6013 | 0.852 | 0.753 | 0.7339 | 0.7222 | 0.704 | 0.712 | 0.68 | 0.661 | 0.62
10 µM, coculture fibroblast: H6019 | 0.759 | 0.648 | 0.627 | 0.542 | 0.511 | 0.493 | 0.47 | 0.446 | 0.424
10 µM, coculture fibroblast: H6076 | 0.81117 | 0.657 | 0.606 | 0.556 | 0.521 | 0.491 | 0.487 | 0.4848 | 0.4754
10 µM, coculture fibroblast: H6231 | 0.746 | 0.635 | 0.564 | 0.504 | 0.461 | 0.424 | 0.411 | 0.383 | 0.363
10 µM, coculture fibroblast: HADF | 0.805 | 0.704 | 0.669 | 0.629 | 0.598 | 0.603 | 0.555 | 0.537 | 0.498
10 µM, coculture fibroblast: HCFa | 0.762 | 0.669 | 0.636 | 0.597 | 0.573 | 0.581 | 0.519 | 0.51 | 0.461
10 µM, coculture fibroblast: HCPF | 0.806 | 0.719 | 0.618 | 0.563 | 0.526 | 0.477 | 0.446 | 0.419 | 0.3995
10 µM, coculture fibroblast: HHSteC | 0.81 | 0.7442 | 0.705 | 0.6617 | 0.645 | 0.654 | 0.594 | 0.5695 | 0.5158
10 µM, coculture fibroblast: HMF | 0.782 | 0.64 | 0.537 | 0.5 | 0.46 | 0.427 | 0.419 | 0.402 | 0.398
10 µM, coculture fibroblast: HPFa | 0.8485 | 0.7911 | 0.7347 | 0.69105 | 0.6601 | 0.6562 | 0.573 | 0.54 | 0.455
10 µM, coculture fibroblast: HUF | 0.8339 | 0.7175 | 0.677 | 0.598 | 0.5417 | 0.517 | 0.49 | 0.474 | 0.466
10 µM, coculture fibroblast: Hs5 | 0.805 | 0.691 | 0.6 | 0.524 | 0.484 | 0.446 | 0.4356 | 0.404 | 0.388
10 µM, coculture fibroblast: Hs27A | 0.7848 | 0.71324 | 0.688 | 0.664 | 0.627 | 0.674 | 0.609 | 0.596 | 0.545
10 µM, coculture fibroblast: Hs343T | 0.75 | 0.589 | 0.497 | 0.443 | 0.404 | 0.374 | 0.358 | 0.346 | 0.35
10 µM, coculture fibroblast: WS1 | 0.804 | 0.705 | 0.661 | 0.584 | 0.54 | 0.518 | 0.489 | 0.459 | 0.44
100 µM, coculture fibroblast: C12385 | 0.777 | 0.73 | 0.717 | 0.645 | 0.613 | 0.598 | 0.591 | 0.584 | 0.591
100 µM, coculture fibroblast: H6013 | 0.829 | 0.809 | 0.813 | 0.825 | 0.845 | 0.799 | 0.827 | 0.731 | 0.753
100 µM, coculture fibroblast: H6019 | 0.769 | 0.724 | 0.716 | 0.646 | 0.623 | 0.625 | 0.602 | 0.599 | 0.591
100 µM, coculture fibroblast: H6076 | 0.6366 | 0.572 | 0.578 | 0.555 | 0.553 | 0.555 | 0.598 | 0.621 | 0.646
100 µM, coculture fibroblast: H6231 | 0.6325 | 0.627 | 0.671 | 0.619 | 0.606 | 0.591 | 0.606 | 0.613 | 0.607
100 µM, coculture fibroblast: HADF | 0.7991 | 0.768 | 0.759 | 0.734 | 0.747 | 0.78 | 0.734 | 0.744 | 0.714
100 µM, coculture fibroblast: HCFa | 0.794 | 0.768 | 0.75 | 0.722 | 0.724 | 0.762 | 0.716 | 0.738 | 0.706
100 µM, coculture fibroblast: HCPF | 0.658 | 0.613 | 0.611 | 0.554 | 0.525 | 0.504 | 0.499 | 0.494 | 0.49
100 µM, coculture fibroblast: HHSteC | 0.847 | 0.848 | 0.845 | 0.818 | 0.835 | 0.861 | 0.821 | 0.833 | 0.801
100 µM, coculture fibroblast: HMF | 0.651 | 0.583 | 0.564 | 0.517 | 0.4949 | 0.473 | 0.484 | 0.485 | 0.494
100 µM, coculture fibroblast: HPFa | 0.868 | 0.862 | 0.845 | 0.808 | 0.812 | 0.84 | 0.789 | 0.776 | 0.74
100 µM, coculture fibroblast: HUF | 0.811 | 0.744 | 0.718 | 0.649 | 0.607 | 0.589 | 0.577 | 0.57 | 0.574
100 µM, coculture fibroblast: Hs5 | 0.6643 | 0.6188 | 0.625 | 0.584 | 0.58 | 0.555 | 0.595 | 0.6 | 0.6102
100 µM, coculture fibroblast: Hs27A | 0.803 | 0.798 | 0.787 | 0.765 | 0.746 | 0.839 | 0.769 | 0.788 | 0.747
100 µM, coculture fibroblast: Hs343T | 0.709 | 0.66 | 0.629 | 0.576 | 0.553 | 0.521 | 0.529 | 0.528 | 0.533
100 µM, coculture fibroblast: WS1 | 0.775 | 0.734 | 0.715 | 0.647 | 0.613 | 0.606 | 0.594 | 0.58 | 0.584

Values are relative to the signal before dosing, not to a vehicle control; the signal also falls without drug.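 Fibroblast labels name human fibroblasts: mostly primary ones from tissues such as uterus (C12385, HUF), lung (H6013), bone (Hs27A), adrenal (HADF) and skin (WS1), plus mammary HMF and breast cancer-associated Hs343T. The cancer cells are basal-like or mesenchymal-like triple-negative breast cancer lines. The paper calls a changed response a hit when it shifts by more than 3x the replicate standard deviation. The tissue of the other fibroblasts is not given here.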
